# Results: PubChem BioAssay AID1487 (National Center for Advancing Translational Sciences (NCATS), 2009)
# The whole screen tested about 200,000 compounds, of which about 25 (0.01%) were called active. Inconclusive means that the source gave no clear call. Such entries were picked first, then a sample of the others. The call rests on the fitted dose curve; in most records, active means well fitted inhibition curve with a large enough effect in the signal ratio, with a control signal flat (not every such curve was filed as active); inconclusive means small, poorly fitted or top-dose-only effect, or effect the other way, or a change in a side signal; inactive means flat fitted curve, though single readings scatter; the % refers to the signal ratio. Where the call is inconclusive, the potency comes from a doubtful curve fit.
# Assay: qHTS Assay for Modulators of Lamin A Splicing
# Conditions: HeLa LMNA splicing GFP/RFP minigene ratio, 48 h; ratio change, negative = inhibition: at 46.1 µM (top of the series) unless noted
# In short: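 S3 HeLa cells stably expressing lamin A-EGFP splicing minigene plus DsRed2, 600 cells/well, 48 h compound exposure at 37C. Laser-scanning cytometry; analysed as GFP (500-530 nm)/RFP (575-640 nm) total intensity ratio; 0.5% DMSO vehicle.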
# On the % scale 0 is the no-effect control and ±100 the full control effect; potency means the concentration at half of the fitted maximal effect.
Compound,"ratio change, negative = inhibition",Potency
O=C(Nc1ccc(SC(F)F)cc1)c1ccc(F)cc1,inconclusive: -17.2% [at 46 µM],–
Cc1ccc(-c2nnn(CC(=O)N(Cc3ccco3)C(C(=O)NC(C)(C)C)c3ccc(C)o3)n2)o1 (stereo unspecified),inconclusive: -12.9% [at 46 µM],–
CC(C)C(OC(=O)C1=Cc2ccccc2OC1)C(=O)NC1CCCC1 (stereo unspecified),inconclusive: -32.3%,–
Cc1ccc2c(Cl)c(C(=O)Nc3ccc4c(c3)OCO4)sc2c1,inconclusive: -2.3%,–
COc1ccc(Cl)c(N2CCN(CCCNC(=O)Nc3ccc(C)cc3)CC2)c1,–,"inconclusive: 35.5 µM [falling, partial curve]"
Cc1ccc(-c2nn(-c3ccccc3)cc2/C=N/NC(=O)c2ccncc2)o1,inconclusive: -49.6% [at 46 µM],–
Cc1ccc(CN(Cc2ccco2)c2cnc(S(C)(=O)=O)nc2C(=O)Nc2ccc(Br)cc2)o1,inconclusive: 11.8% [at 46 µM],–
Cc1nc(N2C(=O)C(=O)/C(=C(/O)c3ccccc3)C2c2ccco2)sc1C (stereo unspecified),inactive: -10.6%,–
CN(C(=O)CSc1nc2ccc(Br)cc2c(=O)n1Cc1ccco1)C1CCS(=O)(=O)C1 (stereo unspecified),–,"inconclusive: 10 µM [inhibitor, partial curve]"
O=C1CC(NCc2ccc(F)cc2)C(=O)N1c1ccccc1 (stereo unspecified),inconclusive: 11.4% [at 46 µM],–
COc1cccc(-c2nnc(NC(=O)c3ccc(S(=O)(=O)N4CCOCC4)cc3)o2)c1,inconclusive: -19.1%,–
O=C(c1ccccc1)N1CCc2cc(CNS(=O)(=O)c3ccccc3Cl)ccc21,inactive: -5.53% [at 46 µM],–
CC(=O)Nc1ccc(S(=O)(=O)NCC2CCC(C(=O)NCCCOC(C)C)CC2)cc1 (stereo unspecified),inconclusive: 25.7% [at 46 µM],–
CCCCc1nc(Cl)c(CO)n1Cc1ccc(-c2ccccc2-c2nn[nH]n2)cc1,inconclusive: -17.6%,–
CSc1nc(C)cc(Oc2ccc(OCCOc3ccccc3)nn2)n1,inconclusive: 3.11%,–
CC(C)(C)c1ccc(-c2n[nH]c(=S)n2/N=C/c2ccncc2)cc1,inactive: 5.98%,–
COc1ccccc1-c1noc(CCC(=O)Nc2ccccc2Cl)n1,inactive: -15.4%,–
Cc1ccccc1-n1nc(C)c2cc(C(=O)NCc3cccnc3)sc21,–,"inconclusive: 17.8 µM [falling, partial curve]"
CCCCC(CC)COC(=O)/C=C/c1ccc(OC)cc1 (stereo unspecified),inconclusive: -7.77%,–
COC(=O)c1sccc1S(=O)(=O)N1CCN(c2cccc(C)c2C)CC1,–,"inconclusive: 25.1 µM [inhibitor, single point]"
CCOc1ccc2nc(C(=O)N3CCCC(C)C3)sc2c1 (stereo unspecified),inconclusive: -45.3%,–

# Some values from the list:
# For ratio change, negative = inhibition, O=C1CC(NCc2ccc(F)cc2)C(=O)N1c1ccccc1 (stereo unspecified) is entered as inconclusive: 11.4% [at 46 µM]
# For ratio change, negative = inhibition, CSc1nc(C)cc(Oc2ccc(OCCOc3ccccc3)nn2)n1 is entered as inconclusive: 3.11%
